For 91 compounds, intracellular bacterial bioluminescence results are on record in the supplement of paper PMC12578635.

SMILES strings stand for the structures. The list shows a part of the results. No stated cut-off is given here; in the data, active = 150% or more and inactive = the rest. Most values come without repeats; read them as rough.

The assay deals with Staphylococcus aureus JE2-lux inside RAW 264.7 macrophages. The experiment in a line: intracellular bacterial bioluminescence relative to DMSO vehicle; higher = higher intracellular bacterial metabolic activity. The conditions noted are these: 10 µM; treatment time 4 h; gentamicin 50 µg/ml.
As to `CC[C@@H](Cn1nc(-c2cccs2)ccc1=O)NC(=O)c1cccs1`, the intracellular bacterial bioluminescence is inactive: 82.2%.

For `COC(=O)C1=C(N)Oc2c(oc(CO)cc2=O)C1c1ccc2c(c1)OCO2` (stereo unspecified), the intracellular bacterial bioluminescence was active: 182%. For `O=C(NCCCC1CCOC1)c1cnn(-c2ccc(F)cc2)c1` (stereo unspecified), the intracellular bacterial bioluminescence was inactive: 85.4%.

For `CCOC(=O)C(C)Oc1cccc2c(=O)n(CC(=O)N3CCCCC3)ccc12` (stereo unspecified), the intracellular bacterial bioluminescence was inactive: 75.1%. Then `COc1ccc(C(=O)N2CCc3c(c(C(=O)NCc4ccc(F)cc4)nn3C)C2)cc1`, with inactive: 75.7%; and `CC(=O)Nc1cccc(-c2nn3c(C)nnc3s2)c1`, with inactive: 82.8%; and `Cc1cc(Cl)cc2sc(N(Cc3cccnc3)C(=O)C(C)C)nc12`, with inactive: 13.2%. Then `COc1cccc(NC(=O)c2ccc(S(=O)(=O)N3CCc4ccccc4C3)cc2)c1`, with inactive: 100%. As for `CC(=O)Nc1cccc(NC(=O)NC2CC(=O)N(c3ccc4c(c3)OCCO4)C2)c1` (stereo unspecified), the intracellular bacterial bioluminescence is inactive: 123%.

In the case of `CCc1cc(C)cc(OC(=O)CSc2nc(-c3ccc(OC)cc3)nc3cc(=O)[nH]n23)c1`, the intracellular bacterial bioluminescence is inactive: 125%. Then `CCOC(=O)c1c(SCC(=O)Nc2ccc([N+](=O)[O-])cc2)nc(=O)[nH]c1C`, with inactive: 105%; and `O=C(OCn1nnc2ccccc2c1=O)C(c1ccccc1)c1ccccc1`, with inactive: 69.3%. Then `COc1ccc(NC(=O)CSc2nc(C)c(C)c(=O)[nH]2)cc1OC`, with inactive: 118%; and `O=C(CCCS(=O)(=O)c1ccccc1)Nc1nc2c(F)cc(F)cc2s1`, with inactive: 104%; and `O=C(NCCC1CCCCN1S(=O)(=O)c1ccc(F)cc1)C(=O)NCc1ccc2c(c1)OCO2` (stereo unspecified), with inactive: 35.5%.

For the compound `O=C(Cn1c(=O)n(Cc2ccco2)c(=O)c2oc3ccccc3c21)Nc1ccc(Cl)cc1`, the intracellular bacterial bioluminescence is inactive: 109%.

In the case of `Cc1ccc(NC(=O)c2cc(S(=O)(=O)N3CCCCC3)ccc2F)cc1C`, the intracellular bacterial bioluminescence is inactive: 89.5%.

As for `Cc1cc(N2CCc3ccccc32)nc(-n2cc([N+](=O)[O-])cn2)n1`, the intracellular bacterial bioluminescence was inactive: 92%. In the case of `COc1ccc(C2CC(c3ccc(NS(C)(=O)=O)cc3)=NN2S(C)(=O)=O)cc1OC` (stereo unspecified) it was inactive: 85.8%. In the case of `O=C1Nc2ccc(S(=O)(=O)Oc3ccc4oc5ccccc5c4c3)c3cccc1c23` it was inactive: 77%. In the case of `O=C(CN1CCC(n2cnc3cc(F)ccc32)CC1)Nc1nccs1` it was inactive: 94.1%. With `Cc1c[nH]c(=O)nc1SCc1ccc([N+](=O)[O-])cc1`, the intracellular bacterial bioluminescence was inactive: 49.2%. On to `CCOC(=O)c1sc(NC(=O)/C=C/c2ccc([N+](=O)[O-])s2)cc1C`, for which the intracellular bacterial bioluminescence was inactive: 87.9%. As for `O=C(CSc1ncnc2c1cnn2-c1cccc(Cl)c1)NCc1ccc2c(c1)OCO2`, the intracellular bacterial bioluminescence is inactive: 96.7%. In the case of `CCOC(=O)c1cnn(-c2ccc(C(=O)Nc3ccc(C(F)(F)F)cc3)cn2)c1N` it was inactive: 129%; in that of `COc1cccc2cc(C(=O)NC(C)=O)/c(=N/c3cccc4ccccc34)oc12`, inactive: 100%. Then `Cc1ccc(C(C)C)c(OCCCN2C(=O)C(=O)c3cccc(C)c32)c1`, with inactive: 81%. In the case of `CCc1cc2c(N3CCCC(C(=O)Nc4ccc5c(c4)OCCO5)C3)ncnc2s1` (stereo unspecified) it was inactive: 92.1%; in that of `Cc1cccc(CNc2ncnc3c2c(C)c(C)n3-c2ccc(Cl)cc2)c1`, inactive: 91.4%; in that of `COc1ccc(Cl)cc1NC(=O)CN1C(=O)[C@@H]2CCCN2C(=O)c2ccccc21`, inactive: 89.6%. As to `CCOc1ccc2ncc(S(=O)(=O)c3ccccc3)c(Nc3ccc(OC)c(OC)c3)c2c1`, the intracellular bacterial bioluminescence was inactive: 76.9%. Then `O=C(Nc1nnc(SCc2cccnc2)s1)C1CC(=O)N(c2ccccc2)C1` (stereo unspecified), with inactive: 69.6%; and `CC(=O)c1ccc(/N=c2\oc3ccccc3cc2C(N)=O)cc1`, with inactive: 97.3%; and `CC1Cc2nc(SCC(=O)Nc3ccc4c(c3)OCO4)n(Cc3ccccc3)c(=O)c2S1` (stereo unspecified), with inactive: 60.1%. Then `CCCn1c(=S)[nH]c2cc(C(=O)NCc3ccccc3)ccc2c1=O`, with inactive: 35.9%; and `Nc1cc(-c2ccccc2)nn1-c1nc(-c2cccc(O)c2)cs1`, with inactive: 36.2%; and `Cc1cc(C)cc(NC(=O)C2CC3CCCN3C23C(=O)N(C)c2ccccc23)c1` (stereo unspecified), with inactive: 87.7%.

Regarding `COCCCn1c(SCc2nc(-c3ccccc3)no2)nc2cc3c(cc2c1=O)OCO3`, the intracellular bacterial bioluminescence is inactive: 112%. In the case of `C=CCNc1nc2c(c(=O)n(C)c(=O)n2C)n1CC(=C)C` it was inactive: 126%; in that of `Oc1ncnc2c1c(-c1ccccc1)cn2-c1cccc(Cl)c1`, inactive: 94%; in that of `COc1ccc(C(=O)CSc2nc(C)cc(=O)[nH]2)cc1OC`, inactive: 92.5%.

For the compound `Cc1ccc(SCCCC(=O)Nc2nc3ccc4sc(C)nc4c3s2)cc1`, the intracellular bacterial bioluminescence is inactive: 101%. In the case of `O=C(CS(=O)(=O)c1ccc(Cl)cc1)Nc1ccc2scnc2c1` it was inactive: 120%; in that of `Cc1cc2cc(C#N)c(SCC(=O)OCc3ccccc3)nc2cc1C`, inactive: 109%. In the case of `O=C(CSc1nc2ccccc2nc1-c1ccccc1)Nc1ccc2c(c1)OCO2` it was inactive: 98.1%. Then `CCCCN(C)C(=O)c1ccc(-c2cccc(F)c2)nc1`, with inactive: 87.2%; and `O=C(Nc1nc2c(s1)CSc1ccccc1-2)c1ccc2c(c1)OCCO2`, with inactive: 84.5%; and `O=C(COc1ccccc1)N1CCN(c2ccc(N3CCOCC3)nn2)CC1`, with inactive: 114%. As to `Cc1cc(NC(=O)CSc2nncc(=O)n2N)no1`, the intracellular bacterial bioluminescence was inactive: 107%. Consider `COc1ccccc1CNc1ncnc(N)c1[N+](=O)[O-]`, for which the intracellular bacterial bioluminescence was inactive: 95%. In the case of `Cc1ccc(CN(C(=O)CC(C)C)c2nc3[nH]c(C)c(C)c(=O)n3n2)cc1` it was inactive: 81.1%; in that of `CCS(=O)(=O)c1nc2ccccc2n1Cc1cccc2ccccc12`, inactive: 68.9%; in that of `Cc1ccc(C(=O)c2sc3nc4c(c(-c5ccco5)c3c2N)CCCCC4)cc1`, inactive: 132%. In the case of `N#C/C(C(=O)NCc1ccccc1)=C1/N=C(NC(=O)c2cccnc2)c2ccccc21` it was inactive: 103%; in that of `CCOc1ccc(NC(=O)c2oc3ccccc3c2NC(=O)CC2CCCC2)cc1`, inactive: 82.5%; in that of `CCOC(=O)c1cccc(NC(=O)COc2ncnc3oc(C)c(C)c23)c1`, inactive: 4.24%. Then `Cc1c(C(=O)NC(C(=O)OC(C)(C)C)C(C)C)sc2ncn(C)c(=O)c12` (stereo unspecified), with inactive: 108%; and `CCc1nnsc1C(=O)Nc1ccc(S(N)(=O)=O)cc1`, with inactive: 135%; and `O=C(Nc1nc2c(s1)COc1ccccc1-2)c1cccc(NS(=O)(=O)c2ccc(F)cc2)c1`, with inactive: 78.1%. For `CNC(=O)c1ccsc1NC(=O)c1ccc(S(=O)(=O)N2CCCC2)cc1`, the intracellular bacterial bioluminescence is inactive: 76.4%. As for `Nc1cc(OC(=O)c2ccc(F)cc2)nn1S(=O)(=O)c1ccccc1`, the intracellular bacterial bioluminescence was inactive: 94.8%. With `Cc1cc2oc(C(=O)NCc3ccc4c(c3)OCO4)c(C)c2cc1C`, the intracellular bacterial bioluminescence is inactive: 92.1%. Then `COCCn1ccc2c(OCC(=O)NCc3ccc(C)cc3)cccc2c1=O`, with inactive: 29.8%; and `COCCNC(=O)C1CCN(c2nc(-c3ccc(Cl)cc3)no2)CC1`, with inactive: 91.2%; and `Cc1nc2cc(F)ccc2n1C1CCN(C(=O)Nc2ccccc2-c2ccccc2)CC1`, with inactive: 113%. Then `N#Cc1ccccc1NC(=O)C(=O)NCCSc1nc(-c2ccccc2)c[nH]1`, with inactive: 132%; and `CCOC(=O)C1=C(C)Nc2[nH]c(=O)[nH]c(=O)c2C1c1ccccc1Cl` (stereo unspecified), with inactive: 118%; and `Cc1cc2oc(C(=O)NC3CCCOC3)cc(=O)c2cc1C` (stereo unspecified), with inactive: 112%.

Turning to `CC(=O)Nc1nc2cc(NC(=O)c3cccnc3)ccc2s1`, the intracellular bacterial bioluminescence is inactive: 106%. Then `O=S(=O)(c1cccc2cccnc12)N1CCN(Cc2noc3ccccc23)CC1`, with inactive: 92.6%; and `CCOC(=O)c1nn(-c2ccccc2)c(=O)cc1OCC(=O)Nc1cc(OC)cc(OC)c1`, with inactive: 102%; and `O=C(NCc1ccc2c(c1)OCO2)c1ccc(=O)[nH]n1`, with inactive: 105%. Then `Cc1c(Cc2ccc3c(c2)OCO3)sc(NC(=O)c2ccc(Br)s2)c1C#N`, with inactive: 52.9%; and `Cc1cccc(-c2nc3c4ccccc4n(CC(=O)Nc4ccccc4Cl)c(=O)n3n2)c1`, with inactive: 112%.

Take `CCOC(=O)c1ccccc1NC(=O)CSc1nc2[nH]ncc2c(=O)[nH]1`: the intracellular bacterial bioluminescence is inactive: 110%. On to `COc1ccc(Cl)cc1NC(=O)CSc1nnc2c3cc(C)ccc3n(C)c2n1`, for which the intracellular bacterial bioluminescence was inactive: 98.9%. Then `Cc1cc2c(c(=O)n1CCCN1CCOCC1)C(c1ccc(Cl)cc1)C(C#N)=C(N)O2` (stereo unspecified), with inactive: 121%. In the case of `Cc1cc(C)n(-c2cc(Nc3ccc4c(c3)OCCO4)ncn2)n1` it was inactive: 4.62%; in that of `c1coc(-c2nn3c(-c4ccco4)nnc3s2)c1`, inactive: 94.2%.

Regarding `COc1ccc(CCNC(=O)C(=O)Nc2ccc(F)c(F)c2)cc1`, the intracellular bacterial bioluminescence was inactive: 100%.

`CCOc1ccc(NC(=S)NCCNc2nc3cc(C)cc(C)c3cc2C#N)cc1`: the intracellular bacterial bioluminescence is inactive: 80.8%. Then `O=C1NC(c2ccc(F)cc2)C(C(=O)c2cccs2)C(O)(C(F)(F)F)N1` (stereo unspecified), with inactive: 86.8%.

Consider `CC(=O)Nc1ccc(NC(=O)c2sc3nc4c(c(-c5ccc(C)cc5)c3c2N)CCC4)cc1`, for which the intracellular bacterial bioluminescence is inactive: 95.7%. Then `COc1ccc2nc(CN[C@@H]3CCC(=O)N[C@H]3c3cc(F)cc(F)c3)ccc2c1`, with inactive: 93.9%. Then `COc1ccc2cc(C)c3nn(CCNC(=O)c4cscn4)c(=O)n3c2c1`, with inactive: 81.2%; and `Cn1c(=O)c2c(nc(NCc3ccccc3)n2Cc2cccc3ccccc23)n(C)c1=O`, with inactive: 113%.

For `CCn1/c(=N\C(=O)CS(=O)(=O)c2ccccc2)sc2cc([N+](=O)[O-])ccc21`, the intracellular bacterial bioluminescence was inactive: 55.4%.

For `Cc1nc2nc(Cc3cccc(F)c3)nn2c(NCc2cccs2)c1C`, the intracellular bacterial bioluminescence was inactive: 91.2%. In the case of `O=C(CCC(=O)Nc1noc2ccccc12)NCCc1ccc(Cl)cc1` it was inactive: 27.4%; in that of `O=C(/C=C/c1ccccc1)Nc1nnc(-c2ccc(F)cc2)o1`, inactive: 99.7%; in that of `CCOC(=O)c1sc(NC(=O)CSc2ncnc3sc(C)c(C)c23)c(C(=O)OCC)c1C`, inactive: 81%.
